Results reported in patent publication US9540337B2, “Gamma-glutamyl transpeptidase inhibitors and methods of use” (The Board of Regents of the University of Oklahoma, priority 2012, dated 2017).
Some of these results come from one statement about several compounds together. Some ranges recur; such a range may be that of the whole group of compounds.

Protein sequences, listed by entry. Tags and fused reporters are not part of them. Residues count along the entry.
UniProt P19440, 27-380 limits assumed: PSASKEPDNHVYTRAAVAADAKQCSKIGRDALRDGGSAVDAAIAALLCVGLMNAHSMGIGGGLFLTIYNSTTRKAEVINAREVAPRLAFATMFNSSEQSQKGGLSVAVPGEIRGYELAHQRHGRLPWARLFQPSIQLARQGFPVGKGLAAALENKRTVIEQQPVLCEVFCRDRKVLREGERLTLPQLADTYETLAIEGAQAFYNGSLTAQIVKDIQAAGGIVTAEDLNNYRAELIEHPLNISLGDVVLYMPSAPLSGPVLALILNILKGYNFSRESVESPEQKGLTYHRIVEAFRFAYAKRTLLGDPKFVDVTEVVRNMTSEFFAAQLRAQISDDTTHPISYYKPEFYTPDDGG
UniProt P19440, 381-569 limits assumed: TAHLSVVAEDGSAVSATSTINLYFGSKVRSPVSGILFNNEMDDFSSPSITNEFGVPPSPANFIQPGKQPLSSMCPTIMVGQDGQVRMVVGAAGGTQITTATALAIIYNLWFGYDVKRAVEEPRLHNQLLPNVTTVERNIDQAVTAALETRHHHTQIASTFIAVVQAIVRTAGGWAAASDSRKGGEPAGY

biological target: T1, Human GGT1 (hGGT) (Homo sapiens, UniProt P19440); test: D-GpNA Hydrolysis Assay (release of pNA, 405 nm, pH 7.4); conditions: relative to OU749
Procedure: Enzyme Isolation: Human GGT1 (P19440), lacking the transmembrane domain, was expressed in Pichia pastoris and isolated as previously described (14). […] One unit of GGT activity was defined as the amount of enzyme that released 1 μmol of paranitroaniline/min at 37° C. at pH 7.4 in the transpeptidation reaction.
The reaction was initiated with the addition of 19 mU GGT. The reaction was incubated at 37° C. and monitored continuously at 405 nm by a Bio-Rad model 680 microplate reader with Microplate Manager 5.2 software (Bio-Rad, Hercules, Calif.).
Data Analysis: Samples in each experiment were run in triplicate. Each inhibitor was evaluated in two or more independent experiments. Double reciprocal plots were generated to assess data quality and determine the correct rate equation for data fitting. Data were fitted using the proper rate equation and the Marquardt-Levenberg algorithm supplied with the Enzfitter program (BIOSOFT, Cambridge, UK). Kinetic parameters with standard errors were estimated using a simple weighting method.
Data adhering to Michaelis-Menten Kinetics were fitted to eq. 1. Data for initial rate patterns with D-, L-GpNA varied at different fixed levels of glygly were fitted to eq. […] Data for competitive and uncompetitive inhibition were fitted to eqs. 3 and 4. Data for the dependence of Vmax and Vmax/KD-GpNA on the concentration of activator were fitted using eq. 5 (25).
In eqs 1-6, Vmax are the initial and maximum rates, respectively, Ka and Kb are Michaelis constants for substrates A and B, respectively, and Kis and Kii are slope and intercept inhibition constants. In eq. […]
D-GpNA Hydrolysis Assay: The assay was carried out as previously described. […] The reaction was initiated with the addition of 19 mU GGT as determined by the L-GpNA transpeptidation assay. The reaction was incubated at 37° C. and monitored continuously at 405 nm.

**Q.** COc1ccc(Cc2nnc(NS(=O)(=O)c3ccc(Cl)c(Cl)c3)s2)cc1 [Compound 8] was tested. Which “fold less effective than OU749 in inhibiting hydrolysis of D-GpNA” value did it give?
**A.** 40-75 fold

**Q.** COc1ccc(Cc2nnc(NS(=O)(=O)c3ccc(OC)cc3)s2)cc1 [Compound 9] was tested. Which “fold less effective than OU749 in inhibiting hydrolysis of D-GpNA” value did it give?
**A.** 40-75 fold

**Q.** For COc1ccc(Cc2nnc(NS(=O)(=O)c3ccc(Cl)cc3)s2)cc1 [Compound 10], which “fold less effective than OU749 in inhibiting hydrolysis of D-GpNA” value is on record?
**A.** 40-75 fold

biological target: T1, Human GGT1 (hGGT); test: L-GpNA Transpeptidation Assay with GlyGly as acceptor; assay type: biochemical; set-up: lacking the transmembrane domain; made in house; host or cells: Pichia pastoris; conditions: relative to OU749
Procedure: Transpeptidation Reaction: The same assay buffer was used for both the hydrolysis reaction and the transpeptidation reaction. The transpeptidation reaction included 40 mM glycylglycine (glygly, Sigma, St. Louis, Mo.) as the acceptor. […] The concentration of L-GpNA was 3 mM for experiments in which the concentration of glygly was varied. To initiate the transpeptidation reaction, 4 mU GGT were added.
1. […] 3 and 4. […] 5 (25).
L-GpNA Transpeptidation Assay: The assay has been described previously. […] The concentration of L-GpNA was 3 mM for experiments in which the concentration of GlyGly was varied. To initiate the transpeptidation reaction, 4 mU GGT were added.

**Q.** With COc1ccc(Cc2nnc(NS(=O)(=O)c3ccc(C)cc3)s2)cc1 [Compound 2] as the compound, how does the “times more effective than OU749 as inhibitors of the transpeptidation reaction” value read?
**A.** 3-5 times

**Q.** COc1ccc(Cc2nnc(NS(=O)(=O)c3cccc(Cl)c3)s2)cc1 [Compound 3] was tested. Which “times more effective than OU749 as inhibitors of the transpeptidation reaction” value did it give?
**A.** 3-5 times

**Q.** Which “times more effective than OU749 as inhibitors of the transpeptidation reaction” value does the source give for COc1ccc(Cc2nnc(NS(=O)(=O)c3ccc(Cl)cc3Cl)s2)cc1 [Compound 4] here?
**A.** 3-5 times
